Measurements taken from article PMC12808752.
Results are given in words; binding and its absence hold for the method and conditions named. In cells and extracts the contact can be indirect. Sequences can lack the tags named with a protein.

Target: T1, Euchromatic histone lysine methyltransferase 2 (EHMT2) (human (endogenous in uveal melanoma cell lines)), Q96KQ7
T1 chain: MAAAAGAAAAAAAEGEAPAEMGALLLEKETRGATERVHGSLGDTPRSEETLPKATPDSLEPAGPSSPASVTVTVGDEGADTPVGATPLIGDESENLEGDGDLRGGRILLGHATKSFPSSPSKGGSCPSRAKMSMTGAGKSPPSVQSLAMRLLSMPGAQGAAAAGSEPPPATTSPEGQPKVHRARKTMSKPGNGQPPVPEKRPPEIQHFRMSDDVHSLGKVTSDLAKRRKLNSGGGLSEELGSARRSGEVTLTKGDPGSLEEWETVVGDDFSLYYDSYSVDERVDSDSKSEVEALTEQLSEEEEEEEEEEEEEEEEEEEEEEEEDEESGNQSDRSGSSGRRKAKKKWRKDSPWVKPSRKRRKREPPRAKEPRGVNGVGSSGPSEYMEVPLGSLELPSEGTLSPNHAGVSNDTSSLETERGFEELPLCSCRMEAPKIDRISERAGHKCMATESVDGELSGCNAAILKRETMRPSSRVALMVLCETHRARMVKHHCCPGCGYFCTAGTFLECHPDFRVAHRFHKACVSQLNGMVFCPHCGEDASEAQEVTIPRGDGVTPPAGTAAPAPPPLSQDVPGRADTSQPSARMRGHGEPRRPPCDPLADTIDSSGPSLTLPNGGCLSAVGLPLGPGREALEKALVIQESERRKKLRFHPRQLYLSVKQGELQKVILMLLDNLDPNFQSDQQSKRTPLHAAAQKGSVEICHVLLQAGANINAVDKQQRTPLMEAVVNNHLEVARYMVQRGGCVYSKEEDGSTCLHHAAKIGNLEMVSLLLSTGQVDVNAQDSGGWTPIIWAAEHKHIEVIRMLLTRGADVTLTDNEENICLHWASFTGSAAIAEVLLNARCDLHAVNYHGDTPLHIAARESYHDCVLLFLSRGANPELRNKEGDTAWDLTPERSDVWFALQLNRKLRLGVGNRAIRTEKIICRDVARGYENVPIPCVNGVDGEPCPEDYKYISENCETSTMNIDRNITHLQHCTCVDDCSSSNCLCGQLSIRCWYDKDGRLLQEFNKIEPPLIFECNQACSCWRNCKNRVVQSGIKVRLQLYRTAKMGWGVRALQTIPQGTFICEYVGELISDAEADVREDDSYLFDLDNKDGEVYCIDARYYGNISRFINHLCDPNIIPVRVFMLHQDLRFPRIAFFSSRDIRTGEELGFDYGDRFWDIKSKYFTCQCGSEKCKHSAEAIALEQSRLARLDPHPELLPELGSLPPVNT
Assay: co-IP; UM cells; EHMT2 antibody listed at 1:100 for immunoprecipitation, EHMT1 antibody at 1:1000 for Western blot; no further conditions shown (Appendix Fig. S1A)
Conditions: remark: other sources report otherwise

binding: no binding
B1: EHMT1, Q9H9B1 1-1298 (enzyme)
chain: MAAADAEAVPARGEPQQDCCVKTELLGEETPMAADEGSAEKQAGEAHMAADGETNGSCENSDASSHANAAKHTQDSARVNPQDGTNTLTRIAENGVSERDSEAAKQNHVTADDFVQTSVIGSNGYILNKPALQAQPLRTTSTLASSLPGHAAKTLPGGAGKGRTPSAFPQTPAAPPATLGEGSADTEDRKLPAPGADVKVHRARKTMPKSVVGLHAASKDPREVREARDHKEPKEEINKNISDFGRQQLLPPFPSLHQSLPQNQCYMATTKSQTACLPFVLAAAVSRKKKRRMGTYSLVPKKKTKVLKQRTVIEMFKSITHSTVGSKGEKDLGASSLHVNGESLEMDSDEDDSEELEEDDGHGAEQAAAFPTEDSRTSKESMSEADRAQKMDGESEEEQESVDTGEEEEGGDESDLSSESSIKKKFLKRKGKTDSPWIKPARKRRRRSRKKPSGALGSESYKSSAGSAEQTAPGDSTGYMEVSLDSLDLRVKGILSSQAEGLANGPDVLETDGLQEVPLCSCRMETPKSREITTLANNQCMATESVDHELGRCTNSVVKYELMRPSNKAPLLVLCEDHRGRMVKHQCCPGCGYFCTAGNFMECQPESSISHRFHKDCASRVNNASYCPHCGEESSKAKEVTIAKADTTSTVTPVPGQEKGSALEGRADTTTGSAAGPPLSEDDKLQGAASHVPEGFDPTGPAGLGRPTPGLSQGPGKETLESALIALDSEKPKKLRFHPKQLYFSARQGELQKVLLMLVDGIDPNFKMEHQNKRSPLHAAAEAGHVDICHMLVQAGANIDTCSEDQRTPLMEAAENNHLEAVKYLIKAGALVDPKDAEGSTCLHLAAKKGHYEVVQYLLSNGQMDVNCQDDGGWTPMIWATEYKHVDLVKLLLSKGSDINIRDNEENICLHWAAFSGCVDIAEILLAAKCDLHAVNIHGDSPLHIAARENRYDCVVLFLSRDSDVTLKNKEGETPLQCASLNSQVWSALQMSKALQDSAPDRPSPVERIVSRDIARGYERIPIPCVNAVDSEPCPSNYKYVSQNCVTSPMNIDRNITHLQYCVCIDDCSSSNCMCGQLSMRCWYDKDGRLLPEFNMAEPPLIFECNHACSCWRNCRNRVVQNGLRARLQLYRTRDMGWGVRSLQDIPPGTFVCEYVGELISDSEADVREEDSYLFDLDNKDGEVYCIDARFYGNVSRFINHHCEPNLVPVRVFMAHQDLRFPRIAFFSTRLIEAGEQLGFDYGERFWDIKGKLFSCRCGSPKCRHSSAALAQRQASAAQEAQEDGLPDTSSAAAADPL
